Laboratory results as given in PubChem BioAssay AID504834 (National Center for Advancing Translational Sciences (NCATS), 2011).
Out of some 320,000 compounds screened, about 22,000 (6.9%) were called active. The shares of active, inactive and inconclusive entries below differ from those in the screen. Calls follow the shape of the dose curve; as a rule, active = well fitted inhibition curve with a large enough effect; inconclusive = small, poorly fitted or top-dose-only effect, or another doubt; inactive = no such curve, though single readings can be large or run the other way. Potencies of inconclusive entries are doubtful fits and often do not repeat.

Assay: Primary qHTS for delayed death inhibitors of the malarial parasite plastid, 96 hour incubation
Settings: P. falciparum luciferase reporter growth; series mostly up to 28.7 µM; activity change, negative = inhibition: at the top concentration
Procedure, shortened: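 Cell-based qHTS: luciferase-tagged P. falciparum in erythrocytes (2% hematocrit, 0.05% parasitemia final) incubated with compounds for 96 hours, 37 C, 5% CO2; luciferase detection reagent then added and luminescence measured.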
% is scaled to controls: 0 for no effect and ±100 for the full control effect; potency is read from the fitted curve at half-maximal effect.

Row | SMILES | Potency | activity change, negative = inhibition
1 | CCOc1ccccc1N(CC(=O)Nc1ccc(OC)c(OC)c1)S(=O)(=O)c1ccccc1 | inconclusive: 0.0329 µM [inhibitor, full curve, poor fit] | –
2 | Cc1nn(-c2ccccc2)c(N)c1C1(O)C(=O)Nc2ccccc21 (stereo not drawn) | – | inactive: 28.7%
3 | Oc1ccc(C[C@H]2CNCCN2CCCCC2CCCCC2)cc1 | inconclusive: 10.4 µM [inhibitor, single point] | –
4 | O=C(CCS(=O)(=O)CCN1CCOCC1)NCNC(=O)CCS(=O)(=O)CCN1CCOCC1 | – | inactive: -2.02%
5 | COc1ccccc1-n1c(/C=C/c2ccccn2)nc2ccccc2c1=O | inconclusive: 13.1 µM [inhibitor, single point] | –
6 | COc1ccc(S(=O)(=O)N2CCN(C)CC2)cc1NC(=O)c1ccccc1F | – | inactive: -9.21%
7 | COC(=O)c1c(NC(=O)C(=O)N2CCCC2)sc2c1CC(C)(C)OC2 | inconclusive: 18.5 µM [inhibitor, single point] | –
8 | CCN1CCCc2cc(CN(CCN3CCOCC3)C(=S)Nc3ccc(OC)cc3)ccc21 | active: 5.86 µM | –
9 | Cc1cc(Br)cc(/C=N/NC(=O)c2ccc3c(c2)OCO3)c1O | active: 13.1 µM | –
10 | O=[N+]([O-])c1cc([N+](=O)[O-])c(Oc2ccc(Cl)c3cccnc23)cc1NN1CCCCC1 | active: 1.47 µM | –
11 | COCCN1C(=O)N[C@@H](CCc2ccccc2)[C@H](C(C)=O)[C@H]1C | inconclusive: 0.0415 µM [inhibitor, full curve, poor fit] | –
12 | O=C(O)C1CC(c2ccccc2F)=NO1 (stereo not drawn) | inconclusive: 18.5 µM [inhibitor, single point] | –
13 | Cc1ccn2cc(-c3cccc(NC(=O)c4cccs4)c3)nc2c1 | inconclusive: 13.1 µM [inhibitor, partial curve, poor fit] | –
14 | CC(C)c1ccc(CN(C(=O)C2COc3ccccc3O2)C2CCS(=O)(=O)C2)cc1 (stereo not drawn) | inconclusive: 18.5 µM [inhibitor, single point] | –
15 | COc1ccc(CN2CCN(C(=O)c3cc(-c4cccnc4)nc4ccc(Cl)cc34)CC2)c(OC)c1OC | inconclusive: 1.85 µM [inhibitor, full curve, poor fit] | –
16 | CCC(C)NC(=O)COC(=O)c1cc([N+](=O)[O-])ccc1Sc1nc(C)cs1 (stereo not drawn) | inconclusive: 16.5 µM [inhibitor, single point] | –
17 | CCN1C(=O)c2cccc3c(S(=O)(=O)Nc4ccc(OC)cc4OC)ccc1c23 | inconclusive: 2.08 µM [inhibitor, full curve, poor fit] | –
18 | CCOc1ccccc1-n1c(SCC(=O)N2CCOCC2)nnc1-c1ccccn1 | – | inactive: 109%

A draw from above in order of length of the SMILES, smallest number first:
Row | SMILES | Potency | activity change, negative = inhibition
3 | Oc1ccc(C[C@H]2CNCCN2CCCCC2CCCCC2)cc1 | inconclusive: 10.4 µM [inhibitor, single point] | –
18 | CCOc1ccccc1-n1c(SCC(=O)N2CCOCC2)nnc1-c1ccccn1 | – | inactive: 109%
11 | COCCN1C(=O)N[C@@H](CCc2ccccc2)[C@H](C(C)=O)[C@H]1C | inconclusive: 0.0415 µM [inhibitor, full curve, poor fit] | –
